From patent US6379894
Where cells or extracts were used, other partners may take part.

Chains of the proteins cited; added tags and fusions are not shown. Where a name states a change or a piece, a line headed by the entry shows the natural chain unless it says otherwise. Chains listed by the source or under a name are the forms on record and can include a tag or linker.
UniProt P22415: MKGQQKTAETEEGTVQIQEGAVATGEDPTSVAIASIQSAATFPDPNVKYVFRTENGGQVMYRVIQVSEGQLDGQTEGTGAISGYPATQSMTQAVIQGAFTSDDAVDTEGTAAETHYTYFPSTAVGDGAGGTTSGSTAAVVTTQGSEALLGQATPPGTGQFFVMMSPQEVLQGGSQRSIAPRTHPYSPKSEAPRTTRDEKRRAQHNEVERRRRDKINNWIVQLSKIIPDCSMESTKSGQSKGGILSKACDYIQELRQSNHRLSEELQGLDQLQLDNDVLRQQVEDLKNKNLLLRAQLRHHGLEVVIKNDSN
STAT1 / USF1 (U complex, nuclear extract of IFN-gamma stimulated Me67.8) (Homo sapiens), one chain, as listed by the source, chain 2 of 2: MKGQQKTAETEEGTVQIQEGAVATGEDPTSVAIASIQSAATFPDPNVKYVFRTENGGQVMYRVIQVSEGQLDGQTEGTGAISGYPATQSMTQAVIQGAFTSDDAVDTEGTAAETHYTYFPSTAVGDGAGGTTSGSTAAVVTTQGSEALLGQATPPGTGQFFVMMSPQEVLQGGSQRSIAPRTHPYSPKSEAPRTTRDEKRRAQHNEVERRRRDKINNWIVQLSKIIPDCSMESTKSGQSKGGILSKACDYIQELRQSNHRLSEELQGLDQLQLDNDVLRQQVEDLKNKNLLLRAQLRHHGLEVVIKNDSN
STAT1 / USF1 (U complex, nuclear extract of IFN-gamma stimulated Me67.8) (Homo sapiens), one chain, as listed by the source, chain 1 of 2: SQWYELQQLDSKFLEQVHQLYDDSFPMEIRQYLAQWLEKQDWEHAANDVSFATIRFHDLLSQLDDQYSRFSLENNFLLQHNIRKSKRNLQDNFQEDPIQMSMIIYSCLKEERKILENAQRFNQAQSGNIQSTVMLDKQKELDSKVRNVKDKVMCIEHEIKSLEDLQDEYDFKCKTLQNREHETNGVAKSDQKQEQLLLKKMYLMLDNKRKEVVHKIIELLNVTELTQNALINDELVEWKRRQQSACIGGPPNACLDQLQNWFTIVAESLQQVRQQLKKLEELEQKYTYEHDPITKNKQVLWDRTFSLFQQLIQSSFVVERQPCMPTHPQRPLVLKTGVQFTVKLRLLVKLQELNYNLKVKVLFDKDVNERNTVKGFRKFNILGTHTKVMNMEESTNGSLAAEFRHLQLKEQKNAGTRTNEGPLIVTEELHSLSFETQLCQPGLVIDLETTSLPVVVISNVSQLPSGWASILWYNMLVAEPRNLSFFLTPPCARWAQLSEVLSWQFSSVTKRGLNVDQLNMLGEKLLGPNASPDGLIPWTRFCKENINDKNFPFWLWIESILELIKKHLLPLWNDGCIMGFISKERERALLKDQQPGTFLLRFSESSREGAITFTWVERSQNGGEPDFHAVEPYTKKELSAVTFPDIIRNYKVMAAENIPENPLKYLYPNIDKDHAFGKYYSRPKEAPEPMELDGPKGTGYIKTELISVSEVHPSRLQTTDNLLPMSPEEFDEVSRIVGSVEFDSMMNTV

Tests used:
[1] = molecular target: USF1 (L complex, Me67.8 nuclear extract) (Homo sapiens) (UniProt P22415); assay: EMSA; conditions: L complex, unstimulated or IFN-gamma stimulated extract; USF1 shown by antibody; protein in an extract; label: 32P end label
[2] = test system: STAT1 / USF1 (U complex, nuclear extract of IFN-gamma stimulated Me67.8) (Homo sapiens); assay: EMSA; conditions: U complex, IFN-gamma stimulated; STAT1 antibody supershift, USF1 antibody; protein in an extract; label: 32P end label
[3] = molecular target: USF1 (L complex, Me67.8 nuclear extract) (Homo sapiens) (UniProt P22415); assay: competition with a labelled probe; conditions: L complex disrupted by E competitor; protein in an extract

| Sequence | binding result [1] | binding result [2] | binding result [3] |
| --- | --- | --- | --- |
| GGCCAGGGATTGGGATGCGAGTTCTGATAAAGCAGGTGGTGGCCACAG (double strand) [NGE probe, CIITA promoter IV GAS/E-box region] | binds | binds |  |
| GGGAAAGCACGTCCTGGCC (double strand) [E competitor (E-box)] |  |  | binds |
